No constants are given. Whether binding was seen depends on the method and setting. In cells and extracts the contact can be indirect. A yes stands for co-enrichment or nearness to the bait. Other partners may have been found.
Target: RELA (NF-κB p65) (human (endogenous in HeLa)) (UniProt Q04206)
Assay: affinity purification with mass spectrometry; coIP-MS: anti-RELA antibody (or control rabbit IgG) on Protein A/G magnetic beads, 200 μl HeLa cell lysate (1 μg/μl), 60 min at room temperature, washes with IP lysis buffer, TBST and 50 mM Tris-HCl pH 8.0, on-bead trypsin digestion with or without 0.02% LMNG, DIA-LC-MS/MS; four biological replicates

The chains behind the UniProt entries cited, without tags or fusion partners.
UniProt Q04206: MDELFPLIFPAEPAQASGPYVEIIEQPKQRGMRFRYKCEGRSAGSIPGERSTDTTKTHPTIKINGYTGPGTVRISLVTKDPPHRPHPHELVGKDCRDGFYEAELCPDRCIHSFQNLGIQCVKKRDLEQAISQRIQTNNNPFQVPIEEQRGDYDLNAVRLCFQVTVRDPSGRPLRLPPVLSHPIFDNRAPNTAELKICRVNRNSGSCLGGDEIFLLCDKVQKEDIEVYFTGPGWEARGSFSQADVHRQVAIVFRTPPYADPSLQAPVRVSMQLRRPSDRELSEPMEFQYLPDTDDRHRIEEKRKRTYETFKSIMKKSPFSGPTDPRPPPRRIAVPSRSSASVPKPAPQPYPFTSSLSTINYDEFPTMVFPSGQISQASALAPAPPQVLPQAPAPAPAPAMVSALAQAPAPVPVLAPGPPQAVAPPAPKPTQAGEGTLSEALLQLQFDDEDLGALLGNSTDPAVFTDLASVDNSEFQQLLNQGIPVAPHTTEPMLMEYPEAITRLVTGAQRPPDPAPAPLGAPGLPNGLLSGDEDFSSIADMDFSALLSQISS

binding | Binder
binds | NFKBIE (protein, UniProt O00221 1-500) MNQRRSESRPGNHRLQAYAEPGKGDSGGAGPLSGSARRGRGGGGAIRVRRPCWSGGAGRGGGPAWAVRLPTVTAGWTWPALRTLSSLRAGPSEPHSPGRRPPRAGRPLCQADPQPGKAARRSLEPDPAQTGPRPARAAGMSEARKGPDEAEESQYDSGIESLRSLRSLPESTSAPASGPSDGSPQPCTHPPGPVKEPQEKEDADGERADSTYGSSSLTYTLSLLGGPEAEDPAPRLPLPHVGALSPQQLEALTYISEDGDTLVHLAVIHEAPAVLLCCLALLPQEVLDIQNNLYQTALHLAVHLDQPGAVRALVLKGASRALQDRHGDTALHVACQRQHLACARCLLEGRPEPGRGTSHSLDLQLQNWQGLACLHIATLQKNQPLMELLLRNGADIDVQEGTSGKTALHLAVETQERGLVQFLLQAGAQVDARMLNGCTPLHLAAGRGLMGISSTLCKAGADSLLRNVEDETPQDLTEESLVLLPFDDLKISGKLLLCTD
binds | NFKBIB (protein, UniProt Q15653 1-356) MAGVACLGKAADADEWCDSGLGSLGPDAAAPGGPGLGAELGPGLSWAPLVFGYVTEDGDTALHLAVIHQHEPFLDFLLGFSAGTEYMDLQNDLGQTALHLAAILGETSTVEKLYAAGAGLCVAERRGHTALHLACRVGAHACARALLQPRPRRPREAPDTYLAQGPDRTPDTNHTPVALYPDSDLEKEEEESEEDWKLQLEAENYEGHTPLHVAVIHKDVEMVRLLRDAGADLDKPEPTCGRSPLHLAVEAQAADVLELLLRAGANPAARMYGGRTPLGSAMLRPNPILARLLRAHGAPEPEGEDEKSGPCSSSSDSDSGDEGDEYDDIVVHSSRSQTRLPPTPASKPLPDDPRPV
